In article doi:10.1101/2022.11.21.517319:
No constants are given. Whether binding was seen depends on the method and setting. Binding seen in cells or lysates may run through a third protein. A result given as binding can be weak or reduced; the word gives no strength. Where a sequence is shown, tags or fusion partners need not be part of it.

Biological target: FLAG-tagged SnRK1α1 (Arabidopsis)
Assay: co-IP

binding | Binder
binds | HA-tagged bHLH2 (protein, UniProt Q9CAD0 1-596) MATGENRTVPDNLKKQLAVSVRNIQWSYGIFWSVSASQPGVLEWGDGYYNGDIKTRKTIQAAEVKIDQLGLERSEQLRELYESLSLAESSASGSSQVTRRASAAALSPEDLTDTEWYYLVCMSFVFNIGEGIPGGALSNGEPIWLCNAETADSKVFTRSLLAKSASLQTVVCFPFLGGVLEIGTTEHIKEDMNVIQSVKTLFLEAPPYTTISTRSDYQEIFDPLSDDKYTPVFITEAFPTTSTSGFEQEPEDHDSFINDGGASQVQSWQFVGEEISNCIHQSLNSSDCVSQTFVGTTGRLACDPRKSRIQRLGQIQEQSNHVNMDDDVHYQGVISTIFKTTHQLILGPQFQNFDKRSSFTRWKRSSSVKTLGEKSQKMIKKILFEVPLMNKKEELLPDTPEETGNHALSEKKRREKLNERFMTLRSIIPSISKIDKVSILDDTIEYLQDLQKRVQELESCRESADTETRITMMKRKKPDDEEERASANCMNSKRKGSDVNVGEDEPADIGYAGLTDNLRISSLGNEVVIELRCAWREGILLEIMDVISDLNLDSHSVQSSTGDGLLCLTVNCKHKGTKIATTGMIQEALQRVAWIC
binds | HA-tagged MYB75 (protein, UniProt Q9FE25 1-248) MEGSSKGLRKGAWTTEEDSLLRQCINKYGEGKWHQVPVRAGLNRCRKSCRLRWLNYLKPSIKRGKLSSDEVDLLLRLHRLLGNRWSLIAGRLPGRTANDVKNYWNTHLSKKHEPCCKIKMKKRDITPIPTTPALKNNVYKPRPRSFTVNNDCNHLNAPPKVDVNPPCLGLNINNVCDNSIIYNKDKKKDQLVNNLIDGDNMWLEKFLEESQEVDILVPEATTTEKGDTLAFDVDQLWSLFDGETVKFD
binds | HA-tagged TTG1 (protein, UniProt Q9XGN1 1-341) MDNSAPDSLSRSETAVTYDSPYPLYAMAFSSLRSSSGHRIAVGSFLEDYNNRIDILSFDSDSMTVKPLPNLSFEHPYPPTKLMFSPPSLRRPSSGDLLASSGDFLRLWEINEDSSTVEPISVLNNSKTSEFCAPLTSFDWNDVEPKRLGTCSIDTTCTIWDIEKSVVETQLIAHDKEVHDIAWGEARVFASVSADGSVRIFDLRDKEHSTIIYESPQPDTPLLRLAWNKQDLRYMATILMDSNKVVILDIRSPTMPVAELERHQASVNAIAWAPQSCKHICSGGDDTQALIWELPTVAGPNGIDPMSVYSAGSEINQLQWSSSQPDWIGIAFANKMQLLRV
